PubChem BioAssay AID1259308, NCATS | 2017

Assay: 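Genes whose loss raises luciferase production in HEK293 cells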 (primary screen)
Cell system: human HEK293 embryonic kidney cells stably expressing firefly luciferase (HEK-CMV-Luc2-Hygro)
Knock-down reagent: single siRNA against human genes, 0.8 pmol siRNA per well
Timing: 72 h
Measured: 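Luciferase light (ONE-Glo) measured on one replicate plate set and viability (CellTiter-Glo) on the other, scaled to a negative control siRNA, with robust z-scores and luciferase per cell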
Scale: total luciferase, z-score and total luciferase, % of control: higher = more reporter protein produced; luciferase per cell, z-score: higher = more reporter output per viable cell; viable cells, % of control: higher = more viable cells
Active means: 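An siRNA counts as active if its total luciferase robust z-score exceeds 3; genes with two or more such siRNAs out of three were retested with fresh siRNAs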
Meaning of the calls: active = raised luciferase; inactive = no rise
Shown is one part, drawn at random, of about 59,000 deposited reagents. About 1,510 of all reagents (2.6%) count as active. 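Calls use total luciferase alone and ignore viability, so some active siRNAs may act by altering cell number.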 Reagents against one gene are numbered here.

gene knocked down | reagent | total luciferase, z-score | total luciferase, % of control | luciferase per cell, z-score | viable cells, % of control | Call
SGK2 (serum/glucocorticoid regulated kinase 2) | 1 | -1.9 | 44 | -0.171 | 51.5 | inactive
SGK2 (serum/glucocorticoid regulated kinase 2) | 2 | 0.962 | 101 | 0.549 | 97.7 | inactive
SGK2 (serum/glucocorticoid regulated kinase 2) | 3 | 0.732 | 96.5 | 0.119 | 104 | inactive
DIP2A (DIP2 acetate--CoA ligase A) | 1 | -1.15 | 59 | -1.35 | 94.3 | inactive
DIP2A (DIP2 acetate--CoA ligase A) | 2 | -0.641 | 69.1 | 0.0605 | 76 | inactive
DIP2A (DIP2 acetate--CoA ligase A) | 3 | 0.5 | 91.8 | 0.37 | 93.1 | inactive
KDM3B (lysine demethylase 3B) | 1 | 1.64 | 115 | 0.637 | 108 | inactive
KDM3B (lysine demethylase 3B) | 2 | -0.348 | 75 | -0.604 | 98.2 | inactive
KDM3B (lysine demethylase 3B) | 3 | -0.599 | 70 | -0.713 | 94.3 | inactive
SLC16A3 | 1 | -0.571 | 70.5 | -0.0605 | 80.1 | inactive
SLC16A3 | 2 | 3.41 | 150 | 1.76 | 105 | active
SLC16A3 | 3 | 0.33 | 88.4 | -0.176 | 104 | inactive
C16orf86 (chromosome 16 open reading frame 86) | 1 | 1.39 | 109 | 0.835 | 98.2 | inactive
C16orf86 (chromosome 16 open reading frame 86) | 2 | 0.92 | 100 | 0.487 | 98.5 | inactive
C16orf86 (chromosome 16 open reading frame 86) | 3 | 1.1 | 104 | 1.24 | 83.6 | inactive
MBD3 (methyl-CpG binding domain protein 3) | 1 | 0.832 | 98.4 | 0.858 | 87.7 | inactive
MBD3 (methyl-CpG binding domain protein 3) | 2 | 3.31 | 148 | 2.83 | 78.4 | active
MBD3 (methyl-CpG binding domain protein 3) | 3 | 2.19 | 125 | 1.86 | 86 | inactive
SULT2B1 (sulfotransferase family 2B member 1) | 1 | -0.254 | 76.8 | -0.566 | 99.7 | inactive
SULT2B1 (sulfotransferase family 2B member 1) | 2 | 0.831 | 98.4 | -0.254 | 118 | inactive
SULT2B1 (sulfotransferase family 2B member 1) | 3 | -0.173 | 78.4 | -0.569 | 102 | inactive
PLEKHM2 (pleckstrin homology and RUN domain containing M2) | 1 | 0.167 | 85.2 | -0.125 | 98.4 | inactive
PLEKHM2 (pleckstrin homology and RUN domain containing M2) | 2 | -0.00262 | 81.8 | 0.207 | 86.6 | inactive
PLEKHM2 (pleckstrin homology and RUN domain containing M2) | 3 | 0.802 | 97.8 | 0.818 | 88.2 | inactive

Entries listed above called active:
gene knocked down | reagent | total luciferase, z-score | total luciferase, % of control | luciferase per cell, z-score | viable cells, % of control | Call
SLC16A3 | 2 | 3.41 | 150 | 1.76 | 105 | active
MBD3 (methyl-CpG binding domain protein 3) | 2 | 3.31 | 148 | 2.83 | 78.4 | active
